Reference: the supplement of paper PMC8728848
This is one part of the list.

Experiments:
Assay in all cases: glycan array binding signal (z-score within array); higher = stronger binding
Details in all cases: glycan notation: IUPAC condensed, linker removed
Fuc(a1-2)Gal = target: Fuc(a1-2)Gal
Procedure, shortened: (§1)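 Glycan array binding is given as a within-array Z-score, which can be read as non-binding when negative. The arrays, 3228 of them, came from the Consortium for Functional Glycomics database and were retained only where the protein sequence was available. Z-scores were averaged across arrays of the same protein sequence at different concentrations or buffers and across linkers.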

Fuc(a1-2)Gal(b1-3)GalNAc = target: Fuc(a1-2)Gal(b1-3)GalNAc
Procedure, shortened: as §1

[1] = target: Fuc(a1-2)Gal(b1-3)GalNAc(a1-3)[Fuc(a1-2)]Gal(b1-4)Glc
Procedure, shortened: as §1

[2] = target: Fuc(a1-2)Gal(b1-3)GalNAc(a1-3)[Fuc(a1-2)]Gal(b1-4)GlcNAc
Procedure, shortened: as §1

[3] = target: Fuc(a1-2)Gal(b1-3)GalNAc(b1-3)Gal
Procedure, shortened: as §1

[4] = target: Fuc(a1-2)Gal(b1-3)GalNAc(b1-3)Gal(a1-4)Gal(b1-4)Glc
Procedure, shortened: as §1

[5] = target: Fuc(a1-2)Gal(b1-3)GalNAc(b1-4)[Neu5Ac(a2-3)]Gal(b1-4)Glc
Procedure, shortened: as §1

Fuc(a1-2)Gal(b1-3)GlcNAc = target: Fuc(a1-2)Gal(b1-3)GlcNAc
Procedure, shortened: as §1

[6] = target: Fuc(a1-2)Gal(b1-3)GlcNAc(b1-2)Man(a1-3)[Fuc(a1-2)Gal(b1-3)GlcNAc(b1-2)Man(a1-6)]Man(b1-4)GlcNAc(b1-4)GlcNAc
Procedure, shortened: as §1

[7] = target: Fuc(a1-2)Gal(b1-3)GlcNAc(b1-2)Man(a1-3)[Fuc(a1-2)Gal(b1-3)GlcNAc(b1-2)Man(a1-6)]Man(b1-4)GlcNAc(b1-4)[Fuc(a1-6)]GlcNAc
Procedure, shortened: as §1

[8] = target: Fuc(a1-2)Gal(b1-3)GlcNAc(b1-3)Gal(b1-4)Glc
Procedure, shortened: as §1

[9] = target: Fuc(a1-2)Gal(b1-3)GlcNAc(b1-3)GalNAc
Procedure, shortened: as §1

[10] = target: Fuc(a1-2)Gal(b1-3)GlcNAc(b1-3)[Fuc(a1-2)Gal(b1-3)GlcNAc(b1-6)]GalNAc
Procedure, shortened: as §1

[11] = target: Fuc(a1-2)Gal(b1-3)GlcNAc(b1-3)[Gal(b1-4)GlcNAc(b1-6)]Gal(b1-4)Glc
Procedure, shortened: as §1

[12] = target: Fuc(a1-2)Gal(b1-3)GlcNAc(b1-3)[Neu5Ac(a2-6)Gal(b1-4)GlcNAc(b1-6)]Gal(b1-4)Glc
Procedure, shortened: as §1

[13] = target: Fuc(a1-2)Gal(b1-3)GlcNAc6S
Procedure, shortened: as §1

[14] = target: Fuc(a1-2)Gal(b1-3)[Fuc(a1-4)]GlcNAc
Procedure, shortened: as §1

[15] = target: Fuc(a1-2)Gal(b1-3)[Fuc(a1-4)]GlcNAc(b1-2)Man(a1-3)[Fuc(a1-2)Gal(b1-3)[Fuc(a1-4)]GlcNAc(b1-2)Man(a1-3)]Man(b1-4)GlcNAc(b1-4)GlcNAc
Procedure, shortened: as §1

[16] = target: Fuc(a1-2)Gal(b1-3)[Fuc(a1-4)]GlcNAc(b1-2)Man(a1-3)[Fuc(a1-2)Gal(b1-3)[Fuc(a1-4)]GlcNAc(b1-2)Man(a1-6)]Man(b1-4)GlcNAc(b1-4)[Fuc(a1-6)]GlcNAc(b1-4)[Fuc(a1-6)]GlcNAc
Procedure, shortened: as §1

[17] = target: Fuc(a1-2)Gal(b1-3)[Fuc(a1-4)]GlcNAc(b1-3)[Fuc(a1-3)[Gal(b1-4)]GlcNAc(b1-6)]Gal(b1-4)Glc
Procedure, shortened: as §1

[18] = target: Fuc(a1-2)Gal(b1-3)[Fuc(a1-4)]GlcNAc(b1-3)[Gal(b1-4)GlcNAc(b1-6)]Gal(b1-4)Glc
Procedure, shortened: as §1

[19] = target: Fuc(a1-2)Gal(b1-4)Fuc(a1-3)]GlcNAc(b1-2)Man(a1-3)[Fuc(a1-2)Gal(b1-4)[Fuc(a1-3)]GlcNAc(b1-2)Man(a1-6)]Man(b1-4)GlcNAc(b1-4)GlcNAc
Procedure, shortened: as §1

Fuc(a1-2)Gal(b1-4)Glc = target: Fuc(a1-2)Gal(b1-4)Glc
Procedure, shortened: as §1

Fuc(a1-2)Gal(b1-4)Glc6S = target: Fuc(a1-2)Gal(b1-4)Glc6S
Procedure, shortened: as §1

Fuc(a1-2)Gal(b1-4)GlcNAc = target: Fuc(a1-2)Gal(b1-4)GlcNAc
Procedure, shortened: as §1

[20] = target: Fuc(a1-2)Gal(b1-4)GlcNAc(b1-2)Man
Procedure, shortened: as §1

[21] = target: Fuc(a1-2)Gal(b1-4)GlcNAc(b1-2)Man(a1-3)[Fuc(a1-2)Gal(b1-4)GlcNAc(b1-2)Man(a1-6)]Man(b1-4)GlcNAc(b1-4)GlcNAc
Procedure, shortened: as §1

[22] = target: Fuc(a1-2)Gal(b1-4)GlcNAc(b1-2)Man(a1-3)[Fuc(a1-2)Gal(b1-4)GlcNAc(b1-2)Man(a1-6)]Man(b1-4)GlcNAc(b1-4)[Fuc(a1-6)]GlcNAc
Procedure, shortened: as §1

[23] = target: Fuc(a1-2)Gal(b1-4)GlcNAc(b1-2)[Fuc(a1-2)Gal(b1-4)GlcNAc(b1-4)]Man(a1-3)[Fuc(a1-2)Gal(b1-4)GlcNAc(b1-2)Man(a1-6)]Man(b1-4)GlcNAc(b1-4)GlcNAc
Procedure, shortened: as §1

[24] = target: Fuc(a1-2)Gal(b1-4)GlcNAc(b1-3)Gal(b1-4)GlcNAc
Procedure, shortened: as §1

B1: RbmA (Vibrio cholerae), A0A2H4NFB8 (protein)
chain: MSNFKGSIMNKRHYYLASCLALLFSTASYAEVDCELQPVIEANLSLNQNQLASNGGYISSQLGIRNESCETVKFKYWLSIKGPEGIYFPAKAVVGVDTAQQESDALTDGRMLNVTRGFWVPEYMADGKYTVSLQVVAENGEVFKANQEFVKGGDLNSLPELNGLTIDIKNQFGINSVESTGGFVPFTIDLNNGREGEAKVEFWMTAVGPDGLIIPVHSREKWMIIAGNTFSKVRGINFDKSYPAGEYTINAQVVDIVSGERVEQLMTVVKK
glycan array binding signal (z-score) (Fuc(a1-2)Gal): 0.097
glycan array binding signal (z-score) (Fuc(a1-2)Gal(b1-3)GalNAc): 1.03
glycan array binding signal (z-score) [1]: -0.829
glycan array binding signal (z-score) [2]: 0.053
glycan array binding signal (z-score) [3]: 0.428
glycan array binding signal (z-score) [4]: -0.98
glycan array binding signal (z-score) [5]: -0.337
glycan array binding signal (z-score) (Fuc(a1-2)Gal(b1-3)GlcNAc): -0.789
glycan array binding signal (z-score) [6]: -0.376
glycan array binding signal (z-score) [7]: 0.85
glycan array binding signal (z-score) [8]: -0.335
glycan array binding signal (z-score) [9]: -0.035
glycan array binding signal (z-score) [10]: 0.774
glycan array binding signal (z-score) [11]: -0.263
glycan array binding signal (z-score) [12]: 0.745
glycan array binding signal (z-score) [13]: -0.085
glycan array binding signal (z-score) [14]: 0.049
glycan array binding signal (z-score) [15]: -0.034
glycan array binding signal (z-score) [16]: 0.21
glycan array binding signal (z-score) [17]: -0.87
glycan array binding signal (z-score) [18]: -1.01
glycan array binding signal (z-score) [19]: 0.794
glycan array binding signal (z-score) (Fuc(a1-2)Gal(b1-4)Glc): 0.32
glycan array binding signal (z-score) (Fuc(a1-2)Gal(b1-4)Glc6S): 0.358
glycan array binding signal (z-score) (Fuc(a1-2)Gal(b1-4)GlcNAc): -0.22
glycan array binding signal (z-score) [20]: -0.987
glycan array binding signal (z-score) [21]: 3.71
glycan array binding signal (z-score) [22]: -0.691
glycan array binding signal (z-score) [23]: 0.893
glycan array binding signal (z-score) [24]: 0.264
